This is one part of the list.
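Also: competitive chemoproteomic profiling in live THP-1 cells with an iodoacetamide desthiobiotin (IA-DTB) probe, comparing probe-labelled peptide intensities in compound-treated cells against DMSO-treated controls.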

Sequences of proteins named here, by UniProt entry; tags and fusion partners are left off. A change or cut given only in a name is not applied to a line headed by its entry.
UniProt Q96T88: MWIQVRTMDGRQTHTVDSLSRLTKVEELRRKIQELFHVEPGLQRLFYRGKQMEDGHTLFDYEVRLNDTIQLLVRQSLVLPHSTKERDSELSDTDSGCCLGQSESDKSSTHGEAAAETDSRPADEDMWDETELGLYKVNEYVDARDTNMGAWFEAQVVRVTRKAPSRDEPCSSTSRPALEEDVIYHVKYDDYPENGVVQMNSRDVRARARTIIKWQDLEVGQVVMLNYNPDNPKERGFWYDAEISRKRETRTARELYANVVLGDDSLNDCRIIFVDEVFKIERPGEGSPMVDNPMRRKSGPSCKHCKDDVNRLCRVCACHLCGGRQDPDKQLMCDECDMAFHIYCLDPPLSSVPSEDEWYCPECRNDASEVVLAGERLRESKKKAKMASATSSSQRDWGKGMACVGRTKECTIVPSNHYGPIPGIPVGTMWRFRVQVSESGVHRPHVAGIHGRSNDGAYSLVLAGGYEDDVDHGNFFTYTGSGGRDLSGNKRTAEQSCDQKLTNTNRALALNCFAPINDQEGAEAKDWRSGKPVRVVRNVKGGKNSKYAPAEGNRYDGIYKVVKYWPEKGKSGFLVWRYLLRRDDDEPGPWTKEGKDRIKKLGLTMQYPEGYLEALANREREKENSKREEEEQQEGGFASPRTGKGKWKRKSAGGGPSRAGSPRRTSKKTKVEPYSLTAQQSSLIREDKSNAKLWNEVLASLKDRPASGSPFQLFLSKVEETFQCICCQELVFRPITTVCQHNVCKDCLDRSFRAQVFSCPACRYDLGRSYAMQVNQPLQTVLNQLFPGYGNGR
UniProt Q9UPU5: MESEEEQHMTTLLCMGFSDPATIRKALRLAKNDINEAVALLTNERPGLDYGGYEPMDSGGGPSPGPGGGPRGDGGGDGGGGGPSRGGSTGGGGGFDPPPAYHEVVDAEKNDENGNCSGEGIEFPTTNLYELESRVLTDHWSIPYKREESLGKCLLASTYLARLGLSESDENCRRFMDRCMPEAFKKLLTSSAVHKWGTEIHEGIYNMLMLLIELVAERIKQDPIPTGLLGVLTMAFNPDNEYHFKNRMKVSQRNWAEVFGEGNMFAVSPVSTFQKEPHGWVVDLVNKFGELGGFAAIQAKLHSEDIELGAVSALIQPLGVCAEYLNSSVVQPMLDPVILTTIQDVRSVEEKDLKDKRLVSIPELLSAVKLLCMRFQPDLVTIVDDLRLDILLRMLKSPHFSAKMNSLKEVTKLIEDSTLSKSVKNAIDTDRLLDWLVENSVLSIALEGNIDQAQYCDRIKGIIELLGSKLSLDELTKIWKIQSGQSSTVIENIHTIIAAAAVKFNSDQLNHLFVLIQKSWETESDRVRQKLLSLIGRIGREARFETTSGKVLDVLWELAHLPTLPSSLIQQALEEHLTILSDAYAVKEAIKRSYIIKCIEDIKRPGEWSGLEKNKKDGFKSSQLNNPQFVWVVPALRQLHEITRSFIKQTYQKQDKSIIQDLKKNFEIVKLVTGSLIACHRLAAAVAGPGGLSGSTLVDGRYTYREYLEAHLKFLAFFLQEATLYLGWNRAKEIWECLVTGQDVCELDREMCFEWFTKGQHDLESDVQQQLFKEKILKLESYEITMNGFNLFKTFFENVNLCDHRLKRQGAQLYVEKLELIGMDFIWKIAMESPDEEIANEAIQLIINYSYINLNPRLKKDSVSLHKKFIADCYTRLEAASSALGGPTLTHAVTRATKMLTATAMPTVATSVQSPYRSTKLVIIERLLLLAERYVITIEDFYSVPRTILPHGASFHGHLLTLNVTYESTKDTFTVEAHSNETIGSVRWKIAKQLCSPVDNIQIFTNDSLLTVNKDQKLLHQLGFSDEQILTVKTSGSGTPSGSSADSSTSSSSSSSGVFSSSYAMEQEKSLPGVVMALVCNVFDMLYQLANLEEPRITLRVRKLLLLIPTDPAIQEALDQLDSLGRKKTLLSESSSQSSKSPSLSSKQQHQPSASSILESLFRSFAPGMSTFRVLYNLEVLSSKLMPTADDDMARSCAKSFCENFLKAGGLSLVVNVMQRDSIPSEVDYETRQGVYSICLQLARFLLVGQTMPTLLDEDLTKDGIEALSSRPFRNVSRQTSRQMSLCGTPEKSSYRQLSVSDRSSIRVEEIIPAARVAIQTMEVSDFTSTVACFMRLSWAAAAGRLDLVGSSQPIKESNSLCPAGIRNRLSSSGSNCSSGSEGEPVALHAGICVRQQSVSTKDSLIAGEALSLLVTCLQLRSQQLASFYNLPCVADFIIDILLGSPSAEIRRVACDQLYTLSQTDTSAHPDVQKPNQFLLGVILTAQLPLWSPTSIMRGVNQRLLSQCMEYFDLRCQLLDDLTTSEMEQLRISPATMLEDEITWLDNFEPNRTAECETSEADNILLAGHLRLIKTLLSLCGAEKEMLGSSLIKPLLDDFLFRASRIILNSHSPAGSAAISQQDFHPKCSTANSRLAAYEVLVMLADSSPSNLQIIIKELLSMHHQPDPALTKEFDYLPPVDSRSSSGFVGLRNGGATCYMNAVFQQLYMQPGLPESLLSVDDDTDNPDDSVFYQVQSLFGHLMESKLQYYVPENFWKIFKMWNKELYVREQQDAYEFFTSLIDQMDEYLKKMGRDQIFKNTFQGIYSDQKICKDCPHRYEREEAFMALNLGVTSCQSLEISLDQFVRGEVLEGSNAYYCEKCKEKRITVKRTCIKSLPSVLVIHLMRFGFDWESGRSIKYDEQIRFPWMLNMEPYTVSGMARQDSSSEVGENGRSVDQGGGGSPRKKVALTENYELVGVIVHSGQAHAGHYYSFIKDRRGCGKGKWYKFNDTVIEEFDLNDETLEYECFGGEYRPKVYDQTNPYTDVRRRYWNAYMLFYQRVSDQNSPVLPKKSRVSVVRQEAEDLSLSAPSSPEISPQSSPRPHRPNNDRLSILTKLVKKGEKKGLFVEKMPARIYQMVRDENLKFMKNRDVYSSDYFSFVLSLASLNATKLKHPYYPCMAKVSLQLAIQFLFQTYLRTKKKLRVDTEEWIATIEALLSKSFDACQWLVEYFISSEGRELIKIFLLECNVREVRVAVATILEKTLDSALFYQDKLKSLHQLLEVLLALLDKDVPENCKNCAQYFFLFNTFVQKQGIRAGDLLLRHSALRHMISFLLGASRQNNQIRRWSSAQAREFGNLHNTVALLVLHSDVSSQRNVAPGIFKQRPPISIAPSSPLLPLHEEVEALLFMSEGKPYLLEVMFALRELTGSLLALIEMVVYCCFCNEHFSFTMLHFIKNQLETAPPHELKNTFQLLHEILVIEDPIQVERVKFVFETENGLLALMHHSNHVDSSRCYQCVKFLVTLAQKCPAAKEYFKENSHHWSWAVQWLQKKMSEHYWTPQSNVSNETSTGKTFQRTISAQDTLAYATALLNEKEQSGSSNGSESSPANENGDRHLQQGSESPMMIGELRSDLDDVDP
UniProt Q8N806: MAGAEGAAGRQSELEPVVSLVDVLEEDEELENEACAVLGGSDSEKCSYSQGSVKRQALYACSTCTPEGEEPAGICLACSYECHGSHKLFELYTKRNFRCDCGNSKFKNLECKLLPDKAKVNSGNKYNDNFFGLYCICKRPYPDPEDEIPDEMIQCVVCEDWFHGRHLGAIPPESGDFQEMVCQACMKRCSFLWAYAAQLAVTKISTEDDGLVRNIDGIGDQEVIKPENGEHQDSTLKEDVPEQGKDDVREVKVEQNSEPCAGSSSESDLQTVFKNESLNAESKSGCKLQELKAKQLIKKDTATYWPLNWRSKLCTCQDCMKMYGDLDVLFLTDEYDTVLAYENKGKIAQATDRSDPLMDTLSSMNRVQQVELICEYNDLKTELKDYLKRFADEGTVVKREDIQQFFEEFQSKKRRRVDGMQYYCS
UniProt O60701: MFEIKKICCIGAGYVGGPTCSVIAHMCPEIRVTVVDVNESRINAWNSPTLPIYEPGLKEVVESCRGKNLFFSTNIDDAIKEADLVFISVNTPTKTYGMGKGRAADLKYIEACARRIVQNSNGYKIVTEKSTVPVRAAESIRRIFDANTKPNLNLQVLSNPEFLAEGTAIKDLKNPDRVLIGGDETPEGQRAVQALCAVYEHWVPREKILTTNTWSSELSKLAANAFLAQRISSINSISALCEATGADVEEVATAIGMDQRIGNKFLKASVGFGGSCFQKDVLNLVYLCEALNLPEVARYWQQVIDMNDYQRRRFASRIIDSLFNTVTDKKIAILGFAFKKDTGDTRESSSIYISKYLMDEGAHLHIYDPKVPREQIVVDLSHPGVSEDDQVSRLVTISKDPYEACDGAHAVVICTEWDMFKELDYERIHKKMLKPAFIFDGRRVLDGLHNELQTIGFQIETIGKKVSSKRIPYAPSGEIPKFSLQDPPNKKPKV
UniProt Q96RL1: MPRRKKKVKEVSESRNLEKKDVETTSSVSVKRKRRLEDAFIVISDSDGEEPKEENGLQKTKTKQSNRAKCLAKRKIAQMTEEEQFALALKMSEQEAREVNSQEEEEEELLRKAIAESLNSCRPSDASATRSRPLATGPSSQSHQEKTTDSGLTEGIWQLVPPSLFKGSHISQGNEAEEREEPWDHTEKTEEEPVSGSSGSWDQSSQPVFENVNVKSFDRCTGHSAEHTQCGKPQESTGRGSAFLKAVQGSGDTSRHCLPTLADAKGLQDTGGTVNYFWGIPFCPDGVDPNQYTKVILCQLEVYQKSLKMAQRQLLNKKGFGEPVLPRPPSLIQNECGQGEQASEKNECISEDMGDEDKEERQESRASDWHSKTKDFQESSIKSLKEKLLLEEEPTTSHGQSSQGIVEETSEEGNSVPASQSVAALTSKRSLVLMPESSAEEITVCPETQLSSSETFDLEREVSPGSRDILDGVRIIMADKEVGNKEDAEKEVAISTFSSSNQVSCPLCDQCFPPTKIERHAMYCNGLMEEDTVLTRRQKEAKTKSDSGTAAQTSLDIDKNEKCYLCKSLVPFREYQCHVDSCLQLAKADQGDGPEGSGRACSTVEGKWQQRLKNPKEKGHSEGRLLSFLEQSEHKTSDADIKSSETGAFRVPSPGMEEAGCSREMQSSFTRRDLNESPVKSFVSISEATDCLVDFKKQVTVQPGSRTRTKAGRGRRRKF
UniProt Q92890: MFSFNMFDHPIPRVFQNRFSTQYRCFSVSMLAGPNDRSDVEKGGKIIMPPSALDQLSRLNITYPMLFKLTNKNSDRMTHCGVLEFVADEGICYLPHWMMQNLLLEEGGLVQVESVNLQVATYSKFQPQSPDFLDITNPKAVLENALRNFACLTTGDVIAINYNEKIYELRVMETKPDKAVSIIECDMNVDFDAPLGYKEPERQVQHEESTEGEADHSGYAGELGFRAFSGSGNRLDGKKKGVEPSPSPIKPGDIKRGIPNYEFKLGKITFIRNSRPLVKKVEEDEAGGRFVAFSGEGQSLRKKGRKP
UniProt Q9H3U1: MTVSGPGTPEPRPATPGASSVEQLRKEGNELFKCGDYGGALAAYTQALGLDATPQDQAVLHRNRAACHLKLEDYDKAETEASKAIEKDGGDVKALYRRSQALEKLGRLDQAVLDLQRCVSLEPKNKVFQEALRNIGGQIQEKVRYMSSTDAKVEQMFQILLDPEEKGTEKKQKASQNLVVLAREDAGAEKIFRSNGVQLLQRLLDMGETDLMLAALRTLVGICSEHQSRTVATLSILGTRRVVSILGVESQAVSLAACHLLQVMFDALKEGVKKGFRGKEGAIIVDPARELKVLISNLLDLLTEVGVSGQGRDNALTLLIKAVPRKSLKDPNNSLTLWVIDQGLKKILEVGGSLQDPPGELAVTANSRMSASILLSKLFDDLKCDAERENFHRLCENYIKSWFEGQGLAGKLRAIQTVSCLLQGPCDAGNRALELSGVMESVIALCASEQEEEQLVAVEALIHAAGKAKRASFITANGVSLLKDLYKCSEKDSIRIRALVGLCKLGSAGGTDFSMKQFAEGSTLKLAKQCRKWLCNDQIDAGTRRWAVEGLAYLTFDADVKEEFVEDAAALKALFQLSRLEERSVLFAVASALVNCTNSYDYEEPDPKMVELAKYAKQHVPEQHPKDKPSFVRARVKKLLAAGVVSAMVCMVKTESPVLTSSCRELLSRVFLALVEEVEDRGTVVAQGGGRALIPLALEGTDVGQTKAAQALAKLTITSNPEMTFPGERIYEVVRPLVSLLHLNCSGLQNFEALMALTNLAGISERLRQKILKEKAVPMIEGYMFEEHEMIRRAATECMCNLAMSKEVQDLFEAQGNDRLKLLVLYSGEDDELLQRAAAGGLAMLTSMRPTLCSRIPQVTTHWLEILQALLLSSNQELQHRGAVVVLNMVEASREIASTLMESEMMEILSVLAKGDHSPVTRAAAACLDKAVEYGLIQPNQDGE

Compound in the assay: CC1Cc2ccccc2N1C(=O)C1CCCN(C1)C(=O)CCl (mixture of isomers) [TRIM25 ligand 11 (diastereomer mixture)]
The experiment in a line: probe-labelled cysteine peptide fold change vs DMSO (competition) (log2 fold change); higher = less target engagement (more negative = stronger competition). The conditions noted are these: 50 µM; THP-1; incubation time: 4 h.
Regarding “UHRF1_Q96T88_410_ECTIVPSNHYGPIPGIPVGTMWR (UniProt Q96T88)”, the “probe-labelled cysteine peptide fold change” value is -0.456. For the target “USP24_Q9UPU5_1377_LSSSGSNCSSGSEGEPVALHAGICVR (UniProt Q9UPU5)”, the “probe-labelled cysteine peptide fold change” value is -0.21. For the target “USP19_O94966_1084_AGHFTLDQCLNLFTRPEVLAPEEAWYCPQCK (UniProt O94966)”, the “probe-labelled cysteine peptide fold change” value came out at 0.151. The figure for “UCHL5_Q9Y5K5_9_TGNAGEWCLMESDPGVFTELIK (UniProt Q9Y5K5)” is -0.251. Then “UBR7_Q8N806_260_VEQNSEPCAGSSSESDLQTVFK (UniProt Q8N806)”, with -0.021; and “UGDH_O60701_288_DVLNLVYLCEALNLPEVAR (UniProt O60701)”, with 0.119.

With “UIMC1_Q96RL1_121_AIAESLNSCRPSDASATR (UniProt Q96RL1)”, the “probe-labelled cysteine peptide fold change” value is -0.0493.

For the target “UNC13D_Q70J99_699_DQGQAANMLCVVVNDMEQLR (UniProt Q70J99)”, the “probe-labelled cysteine peptide fold change” value is 0.213. In the case of “UNC13B_O14795_1352_QCAVLDLALDTIK (UniProt O14795)”, the “probe-labelled cysteine peptide fold change” value was -0.0592.

Turning to “UHRF1_Q96T88_170_KAPSRDEPCSSTSR (UniProt Q96T88)”, the “probe-labelled cysteine peptide fold change” value is -0.0741. With “UFD1_Q92890_25_CFSVSMLAGPNDRSDVEK (UniProt Q92890)”, the “probe-labelled cysteine peptide fold change” value is -0.024. Then “UNC45A_Q9H3U1_503_ALVGLCK (UniProt Q9H3U1)”, with 0.188.

The values above are taken from the supplement of paper PMC12067093, “Discovery and optimisation of a covalent ligand for TRIM25 and its application to targeted protein ubiquitination” (Chemical Science, 2025).
